Literature values as cited in patent US20080125456A1, “Injection of Tacrolimus” (Chong Kun Dang Pharmaceutical Corporation, priority 2004, published 2008).

- Solubility in an organic solvent (organic solvent (for example, methanol, ethanol or acetone)): well dissolved
- Solubility in water (water): practically insoluble
Structure (SMILES): C=CC[C@@H]1/C=C(\C)C[C@H](C)C[C@H](OC)[C@H]2O[C@@](O)(C(=O)C(=O)N3CCCC[C@H]3C(=O)O[C@H](/C(C)=C/[C@@H]3CC[C@@H](O)[C@H](OC)C3)[C@H](C)[C@@H](O)CC1=O)[C@H](C)C[C@@H]2OC [Tacrolimus, 17-allyl-1,14-dihydroxy-12-[2-(4-hydroxy-3-methoxycyclohexyl)-1-methylvinyl]-23,2 5-dimethoxy-13,19,21,27-tetramethyl-11,28-dioxy-4-azatricyclo[22.3. 1.0.^4.9]octacos-1 8-ene-2,3,10,16-tetraone]
